{
  "sequences": {"note": "Chains of the proteins cited; added tags and fusions are not shown. Lines headed by an entry give the natural chain unless they say otherwise; changes in a name come on top. Residues count along the entry.", "UniProt P33416, residues 45-811": "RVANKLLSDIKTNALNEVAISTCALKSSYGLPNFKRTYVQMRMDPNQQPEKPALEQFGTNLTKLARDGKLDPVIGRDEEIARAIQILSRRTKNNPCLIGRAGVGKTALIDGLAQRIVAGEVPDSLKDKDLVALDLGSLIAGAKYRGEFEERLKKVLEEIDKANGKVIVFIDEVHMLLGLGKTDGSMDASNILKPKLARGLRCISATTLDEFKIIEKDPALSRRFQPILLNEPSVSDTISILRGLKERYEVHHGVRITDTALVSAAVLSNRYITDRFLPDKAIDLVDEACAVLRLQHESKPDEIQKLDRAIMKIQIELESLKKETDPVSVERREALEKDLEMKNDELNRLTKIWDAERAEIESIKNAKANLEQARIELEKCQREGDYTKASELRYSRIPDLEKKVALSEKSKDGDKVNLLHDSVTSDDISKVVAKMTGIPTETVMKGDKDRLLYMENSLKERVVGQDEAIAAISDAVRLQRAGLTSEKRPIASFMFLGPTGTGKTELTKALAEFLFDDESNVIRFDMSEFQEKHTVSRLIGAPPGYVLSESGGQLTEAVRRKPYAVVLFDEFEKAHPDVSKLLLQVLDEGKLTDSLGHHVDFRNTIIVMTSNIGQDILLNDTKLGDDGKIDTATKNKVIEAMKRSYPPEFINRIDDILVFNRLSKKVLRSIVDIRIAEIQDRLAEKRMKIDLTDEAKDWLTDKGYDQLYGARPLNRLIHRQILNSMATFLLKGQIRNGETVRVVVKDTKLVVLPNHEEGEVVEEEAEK", "UniProt P09950, residues 23-548": "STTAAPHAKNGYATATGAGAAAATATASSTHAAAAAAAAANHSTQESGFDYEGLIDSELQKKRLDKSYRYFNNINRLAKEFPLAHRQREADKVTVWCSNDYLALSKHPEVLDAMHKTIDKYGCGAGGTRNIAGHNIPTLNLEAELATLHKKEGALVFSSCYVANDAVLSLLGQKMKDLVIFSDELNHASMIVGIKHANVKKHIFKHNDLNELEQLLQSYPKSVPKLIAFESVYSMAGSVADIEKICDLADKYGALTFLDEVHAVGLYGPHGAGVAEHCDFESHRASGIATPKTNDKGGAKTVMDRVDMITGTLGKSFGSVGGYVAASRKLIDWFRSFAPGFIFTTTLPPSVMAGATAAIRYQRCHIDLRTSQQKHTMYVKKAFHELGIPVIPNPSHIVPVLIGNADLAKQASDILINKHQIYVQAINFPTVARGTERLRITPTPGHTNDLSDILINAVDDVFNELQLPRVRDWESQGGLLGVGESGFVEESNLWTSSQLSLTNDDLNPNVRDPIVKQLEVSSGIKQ", "UniProt P19882, residues 26-572": "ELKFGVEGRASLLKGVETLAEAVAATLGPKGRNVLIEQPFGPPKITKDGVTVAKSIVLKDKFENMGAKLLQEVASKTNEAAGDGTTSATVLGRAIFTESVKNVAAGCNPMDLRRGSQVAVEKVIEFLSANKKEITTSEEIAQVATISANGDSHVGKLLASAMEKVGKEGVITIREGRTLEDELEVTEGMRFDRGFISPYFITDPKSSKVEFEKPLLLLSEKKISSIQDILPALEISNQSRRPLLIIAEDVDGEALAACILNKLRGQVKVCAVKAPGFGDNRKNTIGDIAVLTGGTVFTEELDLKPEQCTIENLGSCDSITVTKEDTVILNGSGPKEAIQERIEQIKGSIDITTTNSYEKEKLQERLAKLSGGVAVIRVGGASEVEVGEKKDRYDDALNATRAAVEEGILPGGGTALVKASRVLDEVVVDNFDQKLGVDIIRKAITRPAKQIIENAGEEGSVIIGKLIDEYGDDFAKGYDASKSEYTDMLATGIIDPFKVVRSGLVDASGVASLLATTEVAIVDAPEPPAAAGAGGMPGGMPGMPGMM", "UniProt P0CS90, residues 24-654": "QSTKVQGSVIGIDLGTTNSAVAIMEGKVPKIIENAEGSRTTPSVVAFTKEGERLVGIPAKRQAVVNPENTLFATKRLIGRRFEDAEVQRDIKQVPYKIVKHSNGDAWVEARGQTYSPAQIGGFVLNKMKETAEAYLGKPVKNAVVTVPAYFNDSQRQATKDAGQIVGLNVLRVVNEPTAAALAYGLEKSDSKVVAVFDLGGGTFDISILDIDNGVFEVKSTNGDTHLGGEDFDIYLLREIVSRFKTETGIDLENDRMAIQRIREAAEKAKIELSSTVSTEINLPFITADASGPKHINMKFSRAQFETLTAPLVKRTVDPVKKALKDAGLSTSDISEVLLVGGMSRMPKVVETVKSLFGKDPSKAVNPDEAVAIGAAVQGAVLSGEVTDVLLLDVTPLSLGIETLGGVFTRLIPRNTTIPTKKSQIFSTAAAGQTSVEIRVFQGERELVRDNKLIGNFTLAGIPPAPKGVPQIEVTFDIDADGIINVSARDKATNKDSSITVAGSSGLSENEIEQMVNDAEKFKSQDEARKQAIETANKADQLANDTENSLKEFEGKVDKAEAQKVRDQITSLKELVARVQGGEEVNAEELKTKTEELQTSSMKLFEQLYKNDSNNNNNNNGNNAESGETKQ"},
  "source": "paper doi:10.1101/2022.01.28.478199",
  "key": {"[1]": {"molecular_target": "Hsp78TR-6xHis (Hsp78 E216Q/E614Q Walker B mutant with a C-terminal 6x polyhistidine-tag) (S. cerevisiae) (UniProt P33416)", "experiment": "affinity purification with mass spectrometry"}, "[2]": {"molecular_target": "Hsp78-6xHis (wild-type Hsp78 with a C-terminal 6x polyhistidine-tag) (S. cerevisiae) (UniProt P33416)", "experiment": "affinity purification with mass spectrometry"}},
  "note": "These are yes or no findings as the source states them, for the method shown. In cells and extracts the contact can be indirect. A yes stands for co-enrichment or nearness to the bait. Other partners may have been found.",
  "data": [
    {"substance": "Hem1 (5-aminolevulinate synthase) (from UniProt P09950 23-548)", "values": [
      {"measurement": "binding", "setting": "[1]", "result": "binds"}
    ]},
    {"substance": "Hsp60 (from UniProt P19882 26-572)", "values": [
      {"measurement": "binding", "setting": "[1]", "result": "binds"}
    ]},
    {"substance": "Ssc1 (mtHsp70, main Hsp70 chaperone of the mitochondrial matrix) (from UniProt P0CS90 24-654)", "values": [
      {"measurement": "binding", "setting": "[2]", "result": "binds"},
      {"measurement": "binding", "setting": "[1]", "result": "binds"}
    ]}
  ]
}
